Results are given in words; binding and its absence hold for the method and conditions named. Binding seen in cells or lysates may run through a third protein. Some binding calls cover weakened binding; strength is not graded here.
How the values were obtained:
[1] = biological target: V5-tagged wild type BACE1 (β-secretase) (human) (UniProt P56817); assay: co-immunoprecipitation with anti-Myc antibody from H4 cell lysates
[2] = biological target: V5-tagged wild type BACE1 (β-secretase) (human) (UniProt P56817); assay: co-immunoprecipitation with anti-V5 antibody from HBvg cell lysates, Western blot with anti-Myc

Amino acid sequences for entries named in this document (tags omitted). A change or cut given only in a name is not applied to a line headed by its entry.
UniProt P56817: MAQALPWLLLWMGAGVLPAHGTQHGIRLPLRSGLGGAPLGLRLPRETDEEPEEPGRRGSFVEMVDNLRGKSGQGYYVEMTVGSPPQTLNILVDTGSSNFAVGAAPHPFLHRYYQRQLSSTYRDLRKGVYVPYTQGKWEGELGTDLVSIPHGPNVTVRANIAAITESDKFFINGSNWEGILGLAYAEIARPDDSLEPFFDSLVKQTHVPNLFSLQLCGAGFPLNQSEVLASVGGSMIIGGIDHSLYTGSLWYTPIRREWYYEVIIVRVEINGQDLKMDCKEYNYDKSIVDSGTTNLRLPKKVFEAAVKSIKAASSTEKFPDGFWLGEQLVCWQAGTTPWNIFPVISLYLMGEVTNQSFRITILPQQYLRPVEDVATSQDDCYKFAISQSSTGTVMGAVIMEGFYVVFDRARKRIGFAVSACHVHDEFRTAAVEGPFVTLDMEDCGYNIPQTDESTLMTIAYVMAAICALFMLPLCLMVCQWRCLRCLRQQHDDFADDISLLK
UniProt P63165: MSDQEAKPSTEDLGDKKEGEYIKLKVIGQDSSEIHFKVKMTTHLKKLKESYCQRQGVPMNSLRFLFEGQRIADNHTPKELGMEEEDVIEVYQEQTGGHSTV

Myc-tagged SUMO1 (small ubiquitin-like modifier 1) (from UniProt P63165 2-97)
binding [1]: binds | binding [2]: binds

Reference: patent US20140186357A1
